Patent US20190270826A1
Residue numbers refer to the chain shown, from its start. No constants are given. Whether binding was seen depends on the method and setting. Some results given as binding are weak or reduced against the parent protein; the word gives no strength.

Protein sequences, listed by entry. Tags and fused reporters are not part of them. Lines headed by an entry give the natural chain unless they say otherwise; changes in a name come on top.
UniProt Q9NPH3: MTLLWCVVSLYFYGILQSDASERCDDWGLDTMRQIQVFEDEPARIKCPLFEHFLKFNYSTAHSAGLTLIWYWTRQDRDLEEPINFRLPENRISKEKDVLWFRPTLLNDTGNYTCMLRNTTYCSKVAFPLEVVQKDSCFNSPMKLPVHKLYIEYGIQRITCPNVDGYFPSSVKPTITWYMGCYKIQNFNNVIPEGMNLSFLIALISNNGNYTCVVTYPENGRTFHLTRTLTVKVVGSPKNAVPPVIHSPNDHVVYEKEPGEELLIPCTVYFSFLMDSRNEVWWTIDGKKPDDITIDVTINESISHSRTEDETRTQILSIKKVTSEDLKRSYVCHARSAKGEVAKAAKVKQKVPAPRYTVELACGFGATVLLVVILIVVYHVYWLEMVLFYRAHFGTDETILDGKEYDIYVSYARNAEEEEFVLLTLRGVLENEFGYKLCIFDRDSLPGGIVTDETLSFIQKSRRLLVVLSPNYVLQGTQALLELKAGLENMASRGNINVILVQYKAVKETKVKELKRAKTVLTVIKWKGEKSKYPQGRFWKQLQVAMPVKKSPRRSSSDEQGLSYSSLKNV

B1: IAPB38 (antibody, human IgG4 S228P, kappa, F234A L235A, V domains shown)
VH: EVQLLESGGGLVQPGGSLRLSCAASGFTFSNYAMNWVRQAPGKGLEWVSGINYGGGSKYYADSVKGRFTISRDNSKNTLYLQMNSLRAEDTAVYYCAKDYGPFALDYWGQGTLVTVSS
VL: EIVLTQSPATLSLSPGERATLSCRASQSVDDWLAWYQQKPGQAPRLLIYTASNRATGIPARFSGSGSGTDFTLTISSLEPEDFAVYYCQQYHHWPLTFGQGTKVEIKR
B2: IAPB54 (antibody, human IgG4 S228P, lambda, F234A L235A, V domains shown)
VH: QVQLVQSGSELKKPGASVKVSCKASGYTFNTYAMNWVRQAPGQGLEWMGWINTNTGNPTYAQGFTGRFVFSLDTSVSTAYLQISSLKAEDTAVYYCARRYFDWLLGAFDIWGQGTMVTVSS
VL: QSALTQPRSVSGSPGHSVTISCTGTSSDVGDYNYVSWYQQRPGKVPKLLIYDVSKRPSGVPDRFSGSKSGNTASLTISGLQAEDEAIYFCCSYAGNYNVVFGGGTKLTVLG
B3: IAPB62 (antibody, human IgG4 S228P, kappa, F234A L235A, V domains shown)
VH: B2 VH
VL: DIQMTQSPSSVSASVGDRVTITCRASQGISSWLAWYQQKPGKAPKLLIYAASSLQSGVPSRFSGSGSGTDFTLTISSLQPEDFATYYCQQANSFPLTFGGGTKVEIKR
B4: IAPB55 (antibody, human IgG4 S228P, kappa, F234A L235A, V domains shown)
VH: QLQLQESGPGLVKPSETLSLTCTVSGVSISSSTYYWGWLRQPPGMGLEWTGSIYFTGNTYYNPSLKSRVTISVDTSRNQFSLKLSSVTAADTAVYYCGSLFGDYGYFDYWGQGTLVTVSS
VL: EIVMTQSPATLSVSPGERATLSCRASQFISSNLAWYQQKPGQAPRLLIYGASTRATGIPARFSGSGSGTDFTLTISSLQSEDFAVYYCQQYNNWPFTFGPGTKVDIKR
B5: IAPB61 (antibody, human IgG4 S228P, kappa, F234A L235A, V domains shown)
VH: B4 VH
VL: B4 VL with S14P, F96S
B6: IAPB47 (antibody, human IgG4 S228P, kappa, F234A L235A, V domains shown)
VH: EVQLVQSGAEVKKPGESLKISCKGSGYSFTSYWIGWVRQMPGKGLEWMGIIYPSDSYTRYSPSFQGQVTISADKSISTAYLQWSSLKASDTAMYYCARRNSAENYADLDYWGQGTLVTVSS
VL: EIVLTQSPGTLSLSPGERATLSCRASQSISNDLNWYQQKPGKAPKLLIYYASSLQSGVPSRFSGSGSGTDFTLTINSLQPEDFATYYCQQSFTAPLTFGQGTKVEIKR

Each binder was assayed against recombinant human IL1RAP ECD (human) (UniProt Q9NPH3) (assay: recombinant protein).

| binding | Binder |
| --- | --- |
| binds | B1 |
| binds | B2 |
| binds | B3 |
| binds | B4 |
| binds | B5 |
| binds | B6 |
